PubChem BioAssay AID1259308 | NCATS | 2017
Here is one part, drawn at random, of about 59,000 reagents. In the full data, about 1,510 (2.6%) got an active call. 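Calls use total luciferase alone and ignore viability, so some active siRNAs may act by altering cell number.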 The numbers tell different reagents against one gene apart. Not all columns of the deposit are shown.

Assay: 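Knock-downs that increase output of a recombinant reporter protein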 (primary screen)
Cell system: human HEK293 embryonic kidney cells stably expressing firefly luciferase (HEK-CMV-Luc2-Hygro)
Reagent: single siRNA against human genes, 0.8 pmol siRNA per well
Time to read-out: 72 h
Measured: 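Reporter luminescence and viable-cell signal on separate replicate plates, given as percent of non-targeting control and median/MAD z-scores, plus per-cell luciferase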
Direction: total luciferase, z-score: higher = more reporter protein produced
Hit rule: 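An siRNA counts as active if its total luciferase robust z-score exceeds 3; genes with two or more such siRNAs out of three were retested with fresh siRNAs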
Calls: active = raised luciferase; inactive = no rise

total luciferase, z-score, by target gene and reagent
MRPS33 (GeneID 51650): #1 -0.404 inactive; #2 2.16 inactive; #3 1.7 inactive
PM20D2 (GeneID 135293): #1 -0.563 inactive; #2 0.662 inactive; #3 -0.189 inactive
FMR1 (GeneID 2332): #1 -1.27 inactive; #2 1.51 inactive; #3 0.12 inactive
AKAP13 (GeneID 11214): #1 5.76 active; #2 0.21 inactive; #3 1.53 inactive
H3-3A (GeneID 3020): #1 0.561 inactive; #2 1.67 inactive; #3 0.546 inactive
RNF103 (GeneID 7844): #1 0.748 inactive; #2 -0.335 inactive; #3 0.338 inactive
LINC00205 (GeneID 642852): #1 0.648 inactive; #2 -0.897 inactive; #3 -0.345 inactive
TPBGL (GeneID 100507050): #1 -0.189 inactive; #2 1.06 inactive; #3 -0.803 inactive
